Paper PMC7615741
Results are given in words; binding and its absence hold for the method and conditions named. Some results given as binding are weak or reduced against the parent protein; the word gives no strength. Tags and fused reporters may be left off the sequences shown.

T1: GFP-AtEH1 (recombinant, full length) (A. thaliana) (UniProt Q9LM78)
T1 sequence: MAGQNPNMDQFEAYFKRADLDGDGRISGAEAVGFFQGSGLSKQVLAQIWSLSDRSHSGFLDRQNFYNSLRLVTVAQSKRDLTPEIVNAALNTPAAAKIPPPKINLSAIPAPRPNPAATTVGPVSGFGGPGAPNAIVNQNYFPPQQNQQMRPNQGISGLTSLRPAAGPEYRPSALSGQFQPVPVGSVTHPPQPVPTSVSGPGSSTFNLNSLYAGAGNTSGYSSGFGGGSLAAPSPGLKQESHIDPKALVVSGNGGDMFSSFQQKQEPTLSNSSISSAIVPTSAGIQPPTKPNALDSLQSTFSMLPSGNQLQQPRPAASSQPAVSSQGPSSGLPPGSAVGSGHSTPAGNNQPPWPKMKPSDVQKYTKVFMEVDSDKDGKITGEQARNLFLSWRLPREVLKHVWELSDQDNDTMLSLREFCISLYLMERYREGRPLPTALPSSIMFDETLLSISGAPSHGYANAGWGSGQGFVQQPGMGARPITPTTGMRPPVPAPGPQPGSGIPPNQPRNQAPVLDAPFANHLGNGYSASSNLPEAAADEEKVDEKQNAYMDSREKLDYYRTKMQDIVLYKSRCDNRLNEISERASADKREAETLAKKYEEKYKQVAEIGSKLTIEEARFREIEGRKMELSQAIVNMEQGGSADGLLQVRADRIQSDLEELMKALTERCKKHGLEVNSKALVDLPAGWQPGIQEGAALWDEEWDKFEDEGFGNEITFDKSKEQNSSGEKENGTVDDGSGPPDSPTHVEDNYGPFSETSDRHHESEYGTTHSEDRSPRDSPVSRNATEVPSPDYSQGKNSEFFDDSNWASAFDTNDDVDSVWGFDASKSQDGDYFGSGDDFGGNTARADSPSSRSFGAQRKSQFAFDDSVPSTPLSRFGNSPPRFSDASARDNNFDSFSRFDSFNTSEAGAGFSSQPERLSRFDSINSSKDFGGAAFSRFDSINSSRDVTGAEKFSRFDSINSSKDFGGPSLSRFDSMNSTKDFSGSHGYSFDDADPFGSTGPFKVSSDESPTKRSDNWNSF

T2: AtEH1FL-GFP (A. thaliana) (UniProt Q9LM78)
T2 sequence: T1 sequence

B1: TOL6-mCherry (recombinant) (protein, UniProt O80910 1-671)
chain: MASSSASATVAVDKATSDLLLGPDWTTNMEICDSVNSLHWQAKDVVKAVKKRLQHKSSRVQLLALTLLETLVKNCGDYLHHQVAEKNILGEMVKIVKKKADMQVRDKILVMVDSWQQAFGGPEGKYPQYYWAYDELRRSGVEFPRRSPDASPIITPPVSHPPLRQPQGGYGVPPAGYGVHQAGYGVPQAGYGIPQAGYGVPQAGYGIPQVGYGMPSGSSRRLDEAMATEVEGLSLSSIESMRDVMDLLGDMLQAVDPSDREAVKDEVIVDLVERCRSNQKKLMQMLTSTGDDELLGRGLDLNDSLQILLAKHDAIASGSPLPVQASGSPLSVQASKPADSSPKSSEAKDSSSIAGSSSPIPATVSTGKSPIDEEYEEEEDEFAQLARRHSKPPASVTTDPTSLESHNAASNALALALPDPPPPVNTTKEQDMIDLLSITLCTPSTPPAPSSQPSPPPPAGSDQNTHIYPQPQPRFDSYVAPWAQQQQPQQPQAQQGYSQHQQHQQQQGYSQPQHSQQQQGYSQLQQPQPQQGYSQSQPQAQVQMQPSTRPQNPYEYPPPPWASTSANAYYTPRANASASYTDTSALAGRSLQQSNSFPTRAGDPQATSTASNSGVSVGQKPFVPSYRLFEDLDVFGSADGKHNKPANSSNGSQNLSGSQTQQSMIGGRKMI
B2: AUXL1-mScarlet (protein, UniProt Q9SU08 1-904)
chain: MDDFTGLLARDFGLKPQGKSAPMASQSNSSAADFNTFASSYSFATAAGKKSDSLPVFDDPGRDGDDLLFKDVFSGPPPPKYGSSSGDSRSPSAPAFDYDAMFKEPKSKSASSMPVYDKPVYDDEDVFESIPELKIPSTSSQSARFENVFSSISSSPTKHRKQNSSPFDDLMGNNLGKKGADSDREEKGSSIFDDLIPGFGRTSSPPSKRTTSETTNQSEKAPYRTAETSSNVEEDPFVVLEESESTPREPSRTDPLDDIGKFNSRKTDHSSVHGGVFVDIDPLDNLGKPGPDMNSKGKSHLRPPGNISGSQSPPVESPGSYHSKKVSFEDFLEPHNMSTPPPTNSNGSFESSDDVWLTVSEIPLFTQPTSAPPPTRPPPPRPTRPIKKKVNEPSIPTSAYHSHVPSSGRASVNSPTASQMDELDDFSIGRNQTAANGYPDPSSGEDSDVFSTAAASAAAMKDAMDKAEAKFRHAKERREKENLKASRSREGDHTENYDSRERELREKQVRLDRERAEREAEMEKAQEREKEEREREQKRIERERERLVARQAVERATREARERAATEAHAKVQRAAVGKATDARERAERAAVQRAHAEARERAAAGARDKAAKAAAEAREKAEKAAAEAKERANAEAREKETRVRAERAAVERAAAEARGRAAAQAKAKQQQENTNDLDSFFSSISRPNSAPRQRTNPLDPFQDSWNKGGSFESSRESLRVPPGQPENLRKTSSVTNIVDDLSSIFGASASQSGGFQDVDGETEERRRARLERHQRTQERAAKALAEKNERDLQVQREQVEKDRIGVTLDVEIKRWGAGKEGNLRALLSTLQYVLWPECGWQPVSLTDLITAASVKKVYRKATLCIHPDKVQQKGANLQQKYIAEKVFDMLKEAWNKFNSEELF
B3: TOL6-mScarlet (protein, UniProt O80910 1-671)
chain: B1 chain
B4: TOL9-mScarlet (protein, UniProt Q8L860 1-675)
chain: MVNAMVERATSEMLIGPDWAMNLEICDMLNSDPAQAKDVVKGIKKRIGSRNPKAQLLALTLLETIVKNCGDMVHMHVAEKGVIHEMVRIVKKKPDFHVKEKILVLIDTWQEAFGGPRARYPQYYAGYQELLRAGAVFPQRSERSAPVFTPPQTQPLTSYPPNLRNAGPGNDVPEPSAEPEFPTLSLSEIQNAKGIMDVLAEMLSALEPGNKEDLKQEVMVDLVEQCRTYKQRVVHLVNSTSDESLLCQGLALNDDLQRVLTNYEAIASGLPGTSSQIEKPKSETGKSLVDVDGPLIDTGDSSNQANGATSSSGNGVLNQLALPAPPVTNGSANSKIDLLSGDDLALVPVGPPQPASPVASDQNALALIDMFSDNTNNPSPATAPSGNPAQNIPLNPQGHQQPNSQAGEAGLQQSNGFAPQVGYSQFEQPSYGQGVSSPWSSQPAQQPVQPSYGAQDSTAFPPPPWEAQLQDYSPSAESGSPFSPGMHPTQTAFTHAQPVNNNNPYPQIPQTGPPVNNNSPYAQMPQTGQAVANISPYPQIPQNGVYMPNQPNQALGSGYQPQQQQQQQMMMAQYYAQQQQLQQQQQQQAYGNQMGGYGYGYNQQQQGSSPYLDQQMYGLSMRDQTSHQVASSSSTTSYLPPMKPKNKPEDKLFGDLVDISKFKPTKPTSGRAGTM
B5: Med15a (mScarlet tagged) (protein, UniProt F4I171 1-1335)
chain: MDNNNWRPSLPNGEPAMDTGDWRTQLPPDSRQKIVNKIMETLKKHLPFSGPEGINELRRIAARFEEKIFSGALNQTDYLRKISMKMLTMETKSQNAAGSSAAIPAANNGTSIDSIPTNQGQLLPGSLSTNQSQAPQPLLSQTMQNNTASGMTGSTALPSSMPPVSSITNNNTTSVVNQNANMQNVAGMLQDSSGQHGLSSNMFSGPQRQMLGRPHAMSSQQQQQPYLYQQQLQQQLLKQNFQSGNVPNPNSLLPSHIQQQQQNVLQPNQLHSSQQPGVPTSATQPSTVNSAPLQGLHTNQQSSPQLSSQQTTQSMLRQHQSSMLRQHPQSQQASGIHQQQSSLPQQSISPLQQQPTQLMRQQAANSSGIQQKQMMGQHVVGDMQQQHQQRLLNQQNNVMNIQQQQSQQQPLQQPQQQQKQQPPAQQQLMSQQNSLQATHQNPLGTQSNVAGLQQPQQQMLNSQVGNSSLQNNQHSVHMLSQPTVGLQRTHQAGHGLYSSQGQQSQNQPSQQQMMPQLQSHHQQLGLQQQPNLLQQDVQQRLQASGQVTGSLLPPQNVVDQQRQLYQSQRTLPEMPSSSLDSTAQTESANGGDWQEEVYQKIKSMKETYLPDLNEIYQRVAAKLQQDSMPQQQRSDQLEKLRQFKTMLERMIQFLSVSKSNIMPALKDKVAYYEKQIIGFLNMHRPRKPVQQGQLPQSQMQPMQQPQSQTVQDQSHDNQTNPQMQSMSMQGAGPRAQQSSMTNMQSNVLSSRPGVSAPQQNIPSSIPASSLESGQGNTLNNGQQVAMGSMQQNTSQLVNNSSASAQSGLSTLQSNVNQPQLSSSLLQHQHLKQQQDQQMQLKQQFQQRQMQQQQLQARQQQQQQQLQARQQAAQLQQMNDMNDLTSRQGMNVSRGMFQQHSMQGQRANYPLQQLKPGAVSSPQLLQGASPQMSQHLSPQVDQKNTVNKMGTPLQPANSPFVVPSPSSTPLAPSPMQVDSEKPGSSSLSMGNIARQQATGMQGVVQSLAIGTPGISASPLLQEFTSPDGNILNSSTITSGKPSATELPIERLIRAVKSISPQALSSAVSDIGSVVSMVDRIAGSAPGNGSRASVGEDLVAMTKCRLQARNFMTQEGMMATKKMKRHTTAMPLSVASLGGSVGDNYKQFAGSETSDLESTATSDGKKARTETEHALLEEIKEINQRLIDTVVEISDDEDAADPSEVAISSIGCEGTTVRFSFIAVSLSPALKAHLSSTQMSPIQPLRLLVPCSYPNGSPSLLDKLPVETSKENEDLSSKAMARFNILLRSLSQPMSLKDIAKTWDACARAVICEYAQQFGGGTFSSKYGTWEKYVAAS
B6: DRP2a-mScarlet (protein, UniProt Q9SE83 1-914)
chain: MEAIDELSQLSDSMKQAASLLADEDPDETSSSKRPATFLNVVALGNVGAGKSAVLNSLIGHPVLPTGENGATRAPIIIELSRESSLSSKAIILQIDNKSQQVSASALRHSLQDRLSKGASGKNRDEINLKLRTSTAPPLKLVDLPGLDQRIVDESMIAEYAQHNDAILLVIVPASQASEISSSRALKIAKEYDPESTRTIGIIGKIDQAAENSKALAAVQALLSNQGPPKTTDIPWVAVIGQSVSIASAQSGSGENSLETAWRAESESLKSILTGAPQSKLGRIALVDTLASQIRSRMKLRLPSVLSGLQGKSQIVQDELARLGEQLVNSAEGTRAIALELCREFEDKFLLHLAGGEGSGWKVVASFEGNFPNRIKQLPLDRHFDLNNVKRVVLEADGYQPYLISPEKGLRSLIKIVLELAKDPARLCVDEVHRVLVDIVSASANATPGLGRYPPFKREVVAIASAALDGFKNEAKKMVVALVDMERAFVPPQHFIRLVQRRMERQRREEELKGRSSKKGQDAEQSLLSRATSPQPDGPTAGGSLKSMKDKPSPQDKETPEVSGLKTAGPEGEITAGYLMKKSAKTNGWSRRWFVLNEKTGKLGYTKKQEERNFRGTITLEECTIEEIPEDEVEKSKSSKDKKANGPDSKGPGLVFKITCKVPYKTVLKAHNALVLKAESVVDKNEWINKLQKVIQARGGQVGSVSMRQSLSEGSLDKMVRKPIDPEEELRWMSQEVRGYVEAVLNSLAANVPKAVVLCQVEKAKEDMLNQLYSSISAIGNERIESLIQEDQNVKRRRERYQKQSSLLSKLTRQLSIHDNRAAAASSYSDNSGTESSPRASGGSSGDDWMNAFNSAANGPSDSLSKYGSGGHSRRYSDPAQNGDAASPGSGSNRRTTPNRLPPAPPPTGSAYRY

Molecular target: T1, GFP-AtEH1 (recombinant, full length) (A. thaliana)
Assay: in vitro partitioning assay (confocal microscopy of droplets); 5 µM EH1(FL)-GFP after MBP cleaved and 5 µM mCherry-TOL6 mixed in 40 mM Tris-HCl pH7.4, 100 mM NaCl, on ice for 30 min; droplets observed in a 384-well plate; both purified

Row | binding | Binder
1 | binds | B1

Molecular target: T2, AtEH1FL-GFP (A. thaliana)
Assay: partitioning assay (confocal microscopy of condensates in cells); scaffold AtEH1-GFP (FL or ΔIDR3) co-expressed with client-mScarlet in N. benthamiana epidermal cells; partitioning coefficient at AtEH1 positive foci (MitoTally script)

Row | binding | Binder
2 | binds | B2
3 | binds | B3
4 | binds | B4
5 | binds | B5
6 | binds | B6
